Earlier results in patent EP0215063B1, “PYRIDO (2,3-d )PYRIMIDIN DERIVATIVES” (priority 1985, dated 1986).
At least one structure is not confirmed: it was looked up by name or label, or the drawing left a doubt.

Settings: literature; cited from earlier work

Nc1nc(N)c2cc(CNc3ccc(C(=O)N[C@@H](CCC(=O)O)C(=O)O)cc3)cnc2n1 [5-deazaaminopterin]
antimetabolic activity (in words): activity similar to that of amethopterin
